Measured values as given in patent US9506926B2, “Molecular predictors of therapeutic response to specific anti-cancer agents” (The Regents of the University of California, priority 2011, dated 2016).
At least one structure is not confirmed: it was looked up by name or label, or the drawing left a doubt.

Test system: breast cancer cell lines
Test: Cell growth inhibition assay (Cell Titer Glo, 72 h drug exposure, GI50) across a breast cancer cell line panel, with subtype, copy number and growth rate association analysis
Type: cell-based, human

Compound | Subtype-preferential activity in breast cancer cell lines (in words) (running text and figure legends, response as −log10(GI50)) | Subtype specificity (Table 1, most sensitive cell line subtype, q<0.10 deemed significant)
COC1=C2C[C@@H](C)C[C@H](OC)[C@H](O)[C@@H](C)/C=C(\C)[C@H](OC(N)=O)[C@@H](OC)/C=C\C=C(/C)C(=O)NC(=CC1=O)C2=O [Geldanamycin] | ERBB2^AMP cell line sensitivity | –
CO[C@H]1C[C@@H]2CC[C@@H](C)[C@@](O)(O2)C(=O)C(=O)N2CCCC[C@H]2C(=O)O[C@H]([C@H](C)C[C@@H]2CC[C@@H](O)[C@H](OC)C2)CC(=O)[C@H](C)/C=C(\C)[C@@H](O)[C@@H](OC)C(=O)[C@H](C)C[C@H](C)/C=C/C=C/C=C/1C [Rapamycin] | – | Luminal
